Results are given in words; binding and its absence hold for the method and conditions named.
B1: 21E5 chimeric antibody (antibody, human IgG4 S228P, kappa, F234A L235A, V domains shown)
VH: QVQLQQSGAELMKPGASMKISCKATGYTFSTYWIEWVKQRPGHGLEWIGENLPGRHITNYNEKFKGKATFTADTSSNTAYMQLSSLTSEDSAVYYCARGRGTYYFDYWGQGTPLTVSS
VL: DIVMTQAAFSTPVTLGTSASISCRSSQSLLHSNGITYLYWYLQKPGQSPQLLIYQMSNLASGVPDRFSSSGSGTDFTLRISRVEAEDVGVYYCAQNLEFPFTFGSGTKLEIKR
notes: expressed in CHO cells
B2: 2008 chimeric antibody (antibody, human IgG4 S228P, kappa, F234A L235A, V domains shown)
VH: EVLLQQSGPELVKPGASMKISCKASVYSFTAYTMNWVKQSHGKNLEWIGLINPHNGGTRYNQKFKGKATLTLDKSSSTAYMDLLSLTSEDSAVYYCAISRYGSSSFYFDVWGAGTTVAVSS
VL: QIVLSQSPAILSASPGEKVTMTCRASSSISYMHWYQQKPGSSPKPWISATSNLASGVPARFSGSGSGTSYSLTISGVEAEDAATYYCQQWSSNPPTFGGGTNLEIKR
notes: also called 20C8
B3: 1B9 chimeric antibody (antibody, human IgG4 S228P, kappa, F234A L235A, V domains shown)
VH: QVHLQQSGAELMKPGASVKISCKATGYTFNIYWIDWVKQRPGHGLEWIGEILPGSGNTHYNENFKGKATMTADTSSNTAYMQLTSLTSEDSAVYYCARTDGRGYFDYWGQGTTLTVSS
VL: DIVLTQSPASLVVSLGQRATISCRTSKSVSSSAYSYMHWYQQKPGQPPKVLIYLASNLESGVPARFSGSGSGTDFTLNIHPVEEEDAATYYCQHSRELPFTFGSGTKLEIKR
notes: expressed in CHO cells
B4: 2A5 chimeric antibody (antibody, human IgG4 S228P, kappa, F234A L235A, V domains shown)
VH: EVQLQQSGPELVKPGASMKISCKASGYSFTGYTMNWVKQSHGKNLEWIGLINPYNGGTNYNQKFKGKATLTVDKSSSTAYMELLSLTSEDSAVYYCAFSYYGSRGFYFDYWGQGTTLTVSS
VL: QIVLTQSPALMSASPGEKVTMTCSATSSVSYIYWYQQKPRSSPKPWIYLTSNLASGVPARFSGSGSGTSYSLTISSMEAEDAATYYCQQWSSNPPTFGGGTKLEIKR
notes: expressed in CHO cells
B5: 27H3 chimeric antibody (antibody, human IgG4 S228P, kappa, F234A L235A, V domains shown)
VH: QVQLQQSGAELMKPGASVKISCKTTGYRFSSYWIEWVKQRPGHGLEWLGEILPGRGIINYNENFRGKATFTADTSSNTAYVQLSSLTSEDSAVYFCARTDPPYFGVWGAGTTVTVSS
VL: QAVVTQESALTTSPGETVTLTCRSSTGAVTISNYANWVQEKPDHLFTGLIGGTNNRPPGVPARFSGSLIGDKAALTITGAQTEDEAIYFCVLWYSNHWVFGGGTKLTVLR
notes: expressed in CHO cells
B6: 4H4 chimeric antibody (antibody, human IgG4 S228P, kappa, F234A L235A, V domains shown)
VH: EVQLQQSGPELVKPGASMKISCKASGYSFTGYTMNWVKQSHGKNLEWIGLINPYNGGTRYNQKFKGKATLTVDKSSSTAYMELLSLTSEDSAVYYCASSSYRNDGNWYFDVWGAGTTVTVSS
VL: DIVMTQSPAIMSASPGEKVTMTCSASSSVSYMHWYQQKSGTSPKRWIYDTSKLASGVPARFSGSGSGTSYSLTISSMETEDAATYYCQQWSSNPPTFGGGTKLELKR
notes: expressed in CHO cells
B7: 23E12 chimeric antibody (antibody, human IgG4 S228P, kappa, F234A L235A, V domains shown)
VH: QVQLQQSGAELVRPGTSVKISCKASGYAFTNYWLGWMKQRPGHGLEWIGDFYPRTGNTFYNENFKGKVTLTADKSSNTAYMQLSSLTSEDSAVYLCARAGTGFDYWGQGTTLTVSS
VL: SIVMTQSPKSMSMSVGERVTLSCKASENVGGYVSWYQQKPDQSPKLLIYGASSRHTGVPDRFTGSGSETDFTLTISSVQAEDLAAYHCGQNYIYPFTFGGGTKLEIKR
notes: expressed in CHO cells

Each binder was assayed against TrKB (assay: ELISA, antibody titrated 0.019-20 µg/mL on TrKB).

binding	Binder
no binding (tested: 20 µg/mL)	B1
no binding (tested: 20 µg/ml)	B2
no binding (tested: 20 µg/ml)	B3
no binding (tested: 20 µg/mL)	B4
no binding (tested: 20 µg/mL)	B5
no binding (tested: 20 µg/mL)	B6
no binding (tested: 20 µg/ml)	B7

What follows are binders tested against TrKC (assay: ELISA, antibody titrated 0.019-20 µg/mL on TrKC).

binding	Binder
no binding (tested: 20 µg/mL)	B1
no binding (tested: 20 µg/ml)	B2
no binding (tested: 20 µg/ml)	B3
no binding (tested: 20 µg/mL)	B4
no binding (tested: 20 µg/mL)	B5
no binding (tested: 20 µg/mL)	B6
no binding (tested: 20 µg/ml)	B7

The binders below were run against TrKB (assay: ELISA, antibody 0.019-20 µg/mL).

binding	Binder
no binding (tested: 20 µg/mL)	B1
no binding (tested: 20 µg/mL)	B2
no binding (tested: 20 µg/mL)	B3
no binding (tested: 20 µg/mL)	B4
no binding (tested: 20 µg/mL)	B5
no binding (tested: 20 µg/mL)	B6
no binding (tested: 20 µg/mL)	B7

What follows are binders tested against TrKC (assay: ELISA, antibody 0.019-20 µg/mL).

binding	Binder
no binding (tested: 20 µg/mL)	B1
no binding (tested: 20 µg/mL)	B2
no binding (tested: 20 µg/mL)	B3
no binding (tested: 20 µg/mL)	B4
no binding (tested: 20 µg/mL)	B5
no binding (tested: 20 µg/mL)	B6
no binding (tested: 20 µg/mL)	B7

— patent publication US20220204630A1 (SUNSHINE LAKE PHARMA, published 2022)
